Patent US12137691B2, “Method for treating plant seed” (RIJK ZWAAN ZAADTEELT EN ZAADHANDEL B.V., priority 2018, dated 2024)
For at least one compound, name, drawing or mass did not settle the structure.

Test system: fungal growth
Assay: Reducing fungal growth on plant seedlings and plants (general statement)
Format: in vivo
Settings: general statement in the description, no test details

## O=C1O[C@H]([C@@H](O)CO)C(O)=C1O [ascorbate]
  effects in reducing fungal growth on the plant seedlings and plants: good effects
